PubChem BioAssay AID1259254, NCATS | 2017

- Purpose: 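Gene knock-downs that lead to re-replication, shown by excess G2 DNA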 (primary screen)
- System: human HCT116 colorectal cancer cells
- Reagents: single siRNA against human genes
- Timing: 3 days
- Measurement: 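Nuclei stained with Hoechst and imaged; cell-cycle phase assigned by DNA content; G2 share scaled per plate, non-targeting siRNA 0%, GMNN siRNA 100%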
- Scale: G2 robust z-score and G2 cells, % of GMNN control: higher = more G2 cells, more excess DNA replication; raw share of cells in G2: higher = larger share of cells with G2 DNA content
- Hit rule: 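Active siRNAs have a G2 robust z of 5 or more median absolute deviations over the median, which in these data means about 38% or higher of GMNN control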
The whole screen tested about 59,000 reagents; this is a part drawn at random. About 1,550 of all reagents (2.6%) were called active. 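G2 share is only a proxy for re-replication; each gene was hit by three separate siRNAs, and active genes were retested.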 The raw values are shown without normalisation. Reagents against one gene are numbered here. Reagent sequences are not shown. Not given: the amount of reagent.

Gene	reagent	G2 robust z-score	G2 cells, % of GMNN control	raw share of cells in G2 (%)	call
DYNC2I2 (dynein 2 intermediate chain 2)	1	0.64	7.47	7.25	inactive
DYNC2I2 (dynein 2 intermediate chain 2)	2	1.29	12.1	6.78	inactive
DYNC2I2 (dynein 2 intermediate chain 2)	3	-0.672	-1.76	2.37	inactive
SUGP2 (SURP and G-patch domain containing 2)	1	-1.46	-7.27	1.49	inactive
SUGP2 (SURP and G-patch domain containing 2)	2	-0.704	-1.99	5.7	inactive
SUGP2 (SURP and G-patch domain containing 2)	3	-0.264	1.11	6.18	inactive
PRR35 (proline rich 35)	1	-0.86	-3.08	2.79	inactive
PRR35 (proline rich 35)	2	0.325	5.26	4.54	inactive
PRR35 (proline rich 35)	3	-0.0552	2.58	3.97	inactive
SNTN (sentan, cilia apical structure protein)	1	-0.693	-1.91	1.89	inactive
SNTN (sentan, cilia apical structure protein)	2	2.26	18.9	11.3	inactive
SNTN (sentan, cilia apical structure protein)	3	1.58	14.1	7.57	inactive
EEF1B2P3	1	0.16	4.09	5.2	inactive
EEF1B2P3	2	-0.778	-2.51	2.37	inactive
EEF1B2P3	3	-0.303	0.833	3.39	inactive

Only “raw share of cells in G2 (%)” (4 entries from above):
SUGP2 (SURP and G-patch domain containing 2) #1	1.49
SUGP2 (SURP and G-patch domain containing 2) #2	5.7
SUGP2 (SURP and G-patch domain containing 2) #3	6.18
PRR35 (proline rich 35) #1	2.79

Further entries follow.
Gene	reagent	G2 robust z-score	G2 cells, % of GMNN control	raw share of cells in G2 (%)	call
PCBD1 (pterin-4 alpha-carbinolamine dehydratase 1)	1	2.32	19.3	12.5	inactive
PCBD1 (pterin-4 alpha-carbinolamine dehydratase 1)	2	-0.487	-0.462	4.56	inactive
PCBD1 (pterin-4 alpha-carbinolamine dehydratase 1)	3	0.36	5.5	5.08	inactive
RPL17 (ribosomal protein L17)	1	11.3	82.8	33.5	active
RPL17 (ribosomal protein L17)	2	3.17	25.3	14.3	inactive
RPL17 (ribosomal protein L17)	3	1.81	15.7	9.36	inactive
KCNN2 (potassium calcium-activated channel subfamily N member 2)	1	1.6	14.2	9.93	inactive
KCNN2 (potassium calcium-activated channel subfamily N member 2)	2	0.074	3.49	6.56	inactive
KCNN2 (potassium calcium-activated channel subfamily N member 2)	3	-0.566	-1.02	4.44	inactive
SGCE (sarcoglycan epsilon)	1	-0.999	-4.06	2.18	inactive
SGCE (sarcoglycan epsilon)	2	0.148	4.01	7.77	inactive
SGCE (sarcoglycan epsilon)	3	-0.102	2.25	4.28	inactive
OR1L3 (olfactory receptor family 1 subfamily L member 3)	1	-0.747	-2.29	2.98	inactive
OR1L3 (olfactory receptor family 1 subfamily L member 3)	2	2.99	24	13.6	inactive
OR1L3 (olfactory receptor family 1 subfamily L member 3)	3	0.135	3.92	4.49	inactive
